Measured values as given in publication PMC11132869.

Protein sequences, listed by entry. Tags and fused reporters are not part of them. Residues count along the entry.
UniProt Q10M41, 1-350: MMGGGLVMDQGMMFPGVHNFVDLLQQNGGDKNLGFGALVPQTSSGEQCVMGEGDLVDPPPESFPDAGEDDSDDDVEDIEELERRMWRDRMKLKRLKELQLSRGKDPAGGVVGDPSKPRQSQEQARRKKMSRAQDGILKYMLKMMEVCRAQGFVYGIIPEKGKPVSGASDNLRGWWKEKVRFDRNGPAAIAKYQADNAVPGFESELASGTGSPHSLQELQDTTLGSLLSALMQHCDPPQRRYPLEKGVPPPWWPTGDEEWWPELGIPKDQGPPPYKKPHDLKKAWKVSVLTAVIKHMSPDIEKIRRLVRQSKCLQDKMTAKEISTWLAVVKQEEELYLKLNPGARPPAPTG

Molecular target: GST-EIL1-N (OsEIL1 N-terminal) (Oryza sativa) (UniProt Q10M41)
Assay: EMSA
Conditions: competed by excess unlabeled probe; LightShift Chemiluminescent EMSA Kit; 20 min at room temperature; 5% native polyacrylamide gel; salt and pH not stated; recombinant protein; residues 1-350; protein details: GST; label: biotin end label

| Sequence | binding result |
| --- | --- |
| ATACTAGGGATATTCCGATTAATGTACACGTGCCTTCAATTATA (double strand) [OsWOX11-Probe 2] | binds |
| ACAAATACTCACCGTACATGTACGGACTCACTCATATCCC (double strand) [OsWOX11-Probe 1] | binds |
| GAAAATGACATATACAGTACATCATGTACTCCAACTAATAATTAACAACA (double strand) [OsWOX11-Probe 3] | binds |

Construct, isoform or probe ends are uncertain for at least one entry. At least one verdict rests on a figure or table, not on a statement of the authors.
